# In the supplement of paper PMC8166895:
# Where “and” joins values, the source holds several entries; their conditions need not be identical. Equal entries are not always repeated. Structures can show the parent of a compound that is named as a salt. This is one part of the list. Most entries show no effect beyond the scatter of the controls.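 A single-replicate pilot screen of approved drugs and clinical or known-target compounds measured melting temperature via differential scanning fluorimetry. Top stabilizing hits raised the melting point by 2 °C or more; negative shifts indicate destabilization.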
# Tested on: SARS-CoV-2 main protease (Mpro, nsp5)
# Experiment: thermal shift ΔTm of Mpro relative to plate average Tm; higher = stronger thermal stabilization of Mpro (binding)
# Conditions: 10 µM; protein concentration 1 µM
row,SMILES,thermal shift ΔTm of Mpro
1,C=C1/C(=C\C=C2/CCC[C@]3(C)[C@@H]([C@H](C)CCCC(C)C)CC[C@@H]23)C[C@@H](O)C[C@@H]1O [Alfacalcidol],0.263 °C
2,COC(=O)c1ccccc1C(=O)c1ccc(OCCN2CCCCC2)cc1 [Pitofenone hydrochloride],0.0456 °C
3,Clc1ccc([C@]23CNC[C@H]2C3)cc1Cl [Amitifadine hydrochloride],0.29 °C
4,CN1CCC[C@@H]1Cc1c[nH]c2ccc(CCS(=O)(=O)c3ccccc3)cc12 [Eletriptan HBr],-0.1 °C
5,CCCCCCCCCCCCCC(=O)[O-].CCCCCCCCCCCCCC(=O)[O-].N[C@@H]1CCCC[C@H]1N.[Pt+2] [Miriplatin],-0.0207 °C
6,Nc1ccccc1S(N)(=O)=O [2-Aminobenzenesulfonamide],0.143 °C
7,COc1ccccc1Oc1c(NS(=O)(=O)c2ccc(C(C)(C)C)cc2)nc(-c2ncccn2)nc1OCCO [Bosentan],-0.162 °C
8,COc1ccccc1Oc1c(NS(=O)(=O)c2ccc(C(C)(C)C)cc2)nc(-c2ncccn2)nc1OCCO [Bosentan Hydrate],0.0137 °C
9,CC(=O)c1ccc2c(c1)c1cc(C(C)=O)ccc1n2CCNC(C)C [CBL0137 hydrochloride],-0.0812 °C
10,C[S+]([O-])c1ccc(-c2nc(-c3ccc(F)cc3)c(-c3ccncc3)[nH]2)cc1 (stereo unspecified),0.0841 °C
11,COc1cc2c(Oc3ccc(NC(=O)C4(C(=O)Nc5ccc(F)cc5)CC4)cc3F)ccnc2cc1OCCCN1CCOCC1,0.069 °C
12,COCCNc1cc(NC(=O)N2CCCc3cc(CN4CCN(C)CC4=O)c(C=O)nc32)ncc1C#N [Roblitinib],-0.0237 °C
13,OCc1cccnc1 [Roniacol],-0.0653 °C
14,COc1cc(N2CCC(N(C)C)CC2)ccc1Nc1ncc(Cl)c(Nc2ccccc2P(C)(C)=O)n1,-0.331 °C
15,O=C(O)c1cn(C2CC2)c2cc(N3CCNCC3)c(F)cc2c1=O [Ciprofloxacin hydrochloride],-0.00814 °C
16,CCOc1nc2cccc(C(=O)OCc3oc(=O)oc3C)c2n1Cc1ccc(-c2ccccc2-c2noc(=O)[nH]2)cc1 [Azilsartan Medoxomil],-0.0283 °C
17,CN1c2cc(O)c(N=NC(N)=O)cc2CC1S(=O)(=O)O (stereo unspecified) [Carbazochrome sodium sulfonate (AC-17)],-0.0439 °C
18,Cc1cc(-c2nc3sc4c(c3c(=O)[nH]2)CCN(C)C4)cc(C)c1O,-0.0107 °C
19,C#CCN[C@@H]1CCc2ccccc21 [Rasagiline],0.111 °C
20,C#CCN[C@@H]1CCc2ccccc21 [Rasagiline Mesylate],0.163 °C
21,COc1cc(OC2CCN(C)CC2)ccc1Nc1ncc2c(n1)n(C1CCCC1)c(=O)n2C,-0.168 °C
22,C/C(=C\c1csc(C)n1)[C@@H]1C[C@@H]2O[C@]2(C)CCC[C@H](C)[C@H](O)[C@@H](C)C(=O)C(C)(C)[C@@H](O)CC(=O)N1 [Ixabepilone],-0.0645 °C
23,Cc1cc(C(C)(C)C)c(O)c(C(C)(C)C)c1,-0.242 °C
24,COc1ccc(NS(=O)(=O)c2sc3ccc(Cl)cc3c2C)cc1N1CCNCC1,-0.317 °C and 0.23 °C
25,CN1CCC(c2c[nH]c3ccc(O)cc23)CC1,-0.901 °C
26,Nc1n[n+]([O-])c2ccccc2[n+]1[O-] [Tirapazamine],0.0386 °C

row,SMILES,thermal shift ΔTm of Mpro
1,O=C(Nc1nc2ccc(NC(=O)C34CC5CC(CC(C5)C3)C4)cc2s1)c1ccccc1,0.0205 °C
2,CCn1c(C(=O)N(C2CC2)C2CC2)cc2c3c(ncn3C)c(Nc3cc(C)n(C)n3)nc21,0.238 °C
3,CCCN1CCCC[C@H]1C(=O)Nc1c(C)cccc1C [Ropivacaine],0.0532 °C
4,CCCN1CCCC[C@H]1C(=O)Nc1c(C)cccc1C [Ropivacaine HCl],0.0472 °C
5,CC(C)(OCc1nn(Cc2ccccc2)c2ccccc12)C(=O)O [Bindarit],-0.0579 °C
6,CC(=O)NCCCOc1ccc(C(=O)N2CCC(N3C(=O)CCc4ccccc43)CC2)cc1,-0.00629 °C
7,Cc1cccc(-c2[nH]c(C(C)(C)C)nc2-c2ccc3c(c2)OCO3)n1,-0.148 °C
8,CC(NC(=O)c1ccccc1/N=C/c1c(O)ccc2ccccc12)c1ccccc1 (stereo unspecified) [Sirtinol],-0.197 °C
9,CCN(C(=O)c1c(O)c2c(Cl)cccc2n(C)c1=O)c1ccccc1 [Laquinimod],-0.0327 °C
10,CN1CC(=O)N2[C@H](c3ccc4c(c3)OCO4)c3[nH]c4ccccc4c3C[C@@H]2C1=O [Tadalafil],0.606 °C
11,CC(C)NCC(O)COc1ccc(CCOCC2CC2)cc1 (stereo unspecified) [Betaxolol hydrochloride (Betoptic)],-0.12 °C
12,CCc1nc(N)nc(N)c1-c1ccc(Cl)cc1 [Pyrimethamine],-0.126 °C
13,Cc1c(C(=O)NN2CCCCC2)nn(-c2ccc(Cl)cc2Cl)c1-c1ccc(Cl)cc1 [Rimonabant],-0.526 °C
14,Cc1c(C(=O)NN2CCCCC2)nn(-c2ccc(Cl)cc2Cl)c1-c1ccc(Cl)cc1 [Rimonabant hydrochloride],-0.162 °C
15,COc1cc2c(cc1OC)CC(=O)N(CCCN(C)C[C@H]1Cc3cc(OC)c(OC)cc31)CC2 [Ivabradine HCl],0.112 °C
16,COc1cc([C@@H]2c3cc4c(cc3[C@H](O)[C@H]3COC(=O)[C@@H]23)OCO4)cc(OC)c1OC [Picropodophyllin (PPP)],-0.174 °C
17,Clc1ccc(C(Cn2ccnc2)OCc2ccsc2Cl)c(Cl)c1 (stereo unspecified) [Tioconazole],-0.0352 °C
18,COc1cc(C(=O)N2CCC(N3CCN(C)CC3)CC2)ccc1Nc1ncc2c(n1)N(C)c1ccccc1C(=O)N2C,0.121 °C
19,C[C@](N)(Cc1ccc(O)c(O)c1)C(=O)O [L-(-)-α-Methyldopa],-0.112 °C
20,C[C@@H](Nc1cc(F)cc(F)c1)c1cc(C(=O)N(C)C)cc2c(=O)cc(N3CCOCC3)oc12,-0.172 °C
21,CC1=C(C(=O)Nc2ccc3[nH]ncc3c2)C(c2ccc(F)cc2)NC(=O)N1 (stereo unspecified),0.0333 °C
22,CCOC(=O)c1cnc2ccc(-c3cncc(NS(=O)(=O)c4ccccc4)c3)cn12,0.372 °C
23,COc1cc2c(c(OC)c1OC)-c1c(cc3c(c1OC)OCO3)CC(C)C(C)C2 (stereo unspecified) [Schisandrin B (Sch B)],-0.157 °C
24,CCc1c2c(nc3ccc(O)cc13)-c1cc3c(c(=O)n1C2)COC(=O)[C@]3(O)CC,-0.121 °C
25,CCOC(=O)O[C@]1(C(=O)OCCl)CC[C@H]2[C@@H]3CCC4=CC(=O)C=C[C@]4(C)[C@H]3[C@@H](O)C[C@@]21C [Loteprednol etabonate],-0.271 °C

# Pulled one by one from the entries so far:
row,SMILES,thermal shift ΔTm of Mpro
7,Cc1cccc(-c2[nH]c(C(C)(C)C)nc2-c2ccc3c(c2)OCO3)n1,-0.148 °C
22,CCOC(=O)c1cnc2ccc(-c3cncc(NS(=O)(=O)c4ccccc4)c3)cn12,0.372 °C
4,CCCN1CCCC[C@H]1C(=O)Nc1c(C)cccc1C [Ropivacaine HCl],0.0472 °C
